Measured data: PubChem BioAssay AID1508597 (Cure First, 2020)

Aim: 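Genes whose silencing sensitises or protects ovarian cancer cells against rucaparib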 (primary screen)
Cells: human ovarian carcinoma lines grown from tumours: OCI-P5x (papillary serous) and OCI-C5x (clear cell)
Reagent: siRNA pool against human genes, 1.25 pmol siRNA per well
Duration: 72 h or 96 h, depending on the cell culture
Treatment: rucaparib 20 µM (about IC30) or vehicle, present until read-out
Rucaparib or vehicle: Rucaparib
Cell line: OCI-C5x (clear cell)
Read-out: 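ATP luminescence measured at 72 or 96 h according to the culture, then normalised and expressed as percent viability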
Reading the numbers: viability, normalised: higher = more viable cells remaining
Call rule: 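Active when normalised viability falls below 80 percent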
Calls: active = viability under 80%; inactive = viability 80% or more
Shown is a random part of the about 2,100 reagents, under one of the conditions tested. 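Calls flag viability under 80% in either arm, not effects specific to rucaparib; the reference for percent is not stated.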 Not stated in the record: the 100% reference.

The opening 5 records, to show the layout:
target gene	PubChem SID	technical replicate	viability, normalised (%)	outcome
MAGI1	SID405527729	1	46.1	active
MAGI1	SID405527729	2	42.7	active
MAGI1	SID405527729	3	31	active
FOXA1	SID405526792	1	51.2	active
FOXA1	SID405526792	2	47.8	active

Results, repeating the preview:
target gene	PubChem SID	technical replicate	viability, normalised (%)	outcome
MAGI1	SID405527729	1	46.1	active
MAGI1	SID405527729	2	42.7	active
MAGI1	SID405527729	3	31	active
FOXA1	SID405526792	1	51.2	active
FOXA1	SID405526792	2	47.8	active
FOXA1	SID405526792	3	40.8	active
FMR1	SID405526788	1	55.6	active
FMR1	SID405526788	2	53.3	active
FMR1	SID405526788	3	55.9	active
MAP3K2	SID405527902	1	98.4	inactive
MAP3K2	SID405527902	2	55.2	active
MAP3K2	SID405527902	3	70.3	active
CDX4	SID405528088	1	85	inactive
CDX4	SID405528088	2	97	inactive
CDX4	SID405528088	3	104	inactive
CAMKK1	SID405527829	1	52.2	active
CAMKK1	SID405527829	2	58.3	active
CAMKK1	SID405527829	3	38.9	active
BMP2K	SID405528563	1	42.1	active
BMP2K	SID405528563	2	60.6	active
BMP2K	SID405528563	3	45.8	active
PFKP	SID405527757	1	56.8	active
PFKP	SID405527757	2	61.1	active
PFKP	SID405527757	3	61.5	active
RPL11	SID405528362	1	39.9	active
RPL11	SID405528362	2	46.1	active
RPL11	SID405528362	3	38.9	active
SLC2A9	SID405527315	1	39	active
SLC2A9	SID405527315	2	39.1	active
SLC2A9	SID405527315	3	33.2	active
CXXC5	SID405528159	1	93	inactive
CXXC5	SID405528159	2	74.8	active
CXXC5	SID405528159	3	75	active
MCL1	SID405526473	1	35.7	active
MCL1	SID405526473	2	36.4	active
MCL1	SID405526473	3	38.1	active
MYC	SID405527045	1	42	active
MYC	SID405527045	2	31.7	active
MYC	SID405527045	3	42.5	active
SMAD3	SID405527323	1	48.2	active
SMAD3	SID405527323	2	41.8	active
SMAD3	SID405527323	3	47.3	active
POU5F1B	SID405526313	1	51.1	active
POU5F1B	SID405526313	2	79.1	active
POU5F1B	SID405526313	3	55.8	active
MARVELD3	SID405527436	1	46.9	active
MARVELD3	SID405527436	2	55.1	active
MARVELD3	SID405527436	3	57.8	active
APP	SID405527970	1	64.1	active
APP	SID405527970	2	50.4	active
APP	SID405527970	3	44.3	active
PLK1	SID405527168	1	40.7	active
PLK1	SID405527168	2	28.4	active
PLK1	SID405527168	3	29.2	active
PCDHB11	SID405527120	1	59.4	active
PCDHB11	SID405527120	2	34.7	active
PCDHB11	SID405527120	3	31.3	active
